Results are given in words; binding and its absence hold for the method and conditions named. Binding seen in cells or lysates may run through a third protein. Some results given as binding are weak or reduced against the parent protein; the word gives no strength. Values belong to the molecule of their own block, whether it stands above or below them.
Columns and labels:
[1] = molecular target: T1, four and a half LIM domains 2 (FHL2) (mouse (endogenous in MOVAS)) (UniProt O70433); assay: co-IP; Pierce Co-Immunoprecipitation Kit; endogenous proteins of MOVAS cells treated with 3 mmol/L sodium dihydrogen phosphate; precipitation with anti-FHL2 (MBL #K0055-3) or anti-Runx2 (MBL #D130-3) antibody, 7.5 uL/mg protein; both directions
T1 sequence: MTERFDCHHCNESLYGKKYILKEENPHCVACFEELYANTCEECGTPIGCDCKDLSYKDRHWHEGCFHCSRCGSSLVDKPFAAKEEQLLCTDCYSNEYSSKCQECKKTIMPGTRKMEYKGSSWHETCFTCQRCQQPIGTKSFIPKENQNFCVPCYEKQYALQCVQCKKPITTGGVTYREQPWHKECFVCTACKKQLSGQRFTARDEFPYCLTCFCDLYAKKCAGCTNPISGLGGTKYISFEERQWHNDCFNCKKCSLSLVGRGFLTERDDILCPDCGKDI

Amino acid sequences for entries named in this document (tags omitted).
UniProt Q08775: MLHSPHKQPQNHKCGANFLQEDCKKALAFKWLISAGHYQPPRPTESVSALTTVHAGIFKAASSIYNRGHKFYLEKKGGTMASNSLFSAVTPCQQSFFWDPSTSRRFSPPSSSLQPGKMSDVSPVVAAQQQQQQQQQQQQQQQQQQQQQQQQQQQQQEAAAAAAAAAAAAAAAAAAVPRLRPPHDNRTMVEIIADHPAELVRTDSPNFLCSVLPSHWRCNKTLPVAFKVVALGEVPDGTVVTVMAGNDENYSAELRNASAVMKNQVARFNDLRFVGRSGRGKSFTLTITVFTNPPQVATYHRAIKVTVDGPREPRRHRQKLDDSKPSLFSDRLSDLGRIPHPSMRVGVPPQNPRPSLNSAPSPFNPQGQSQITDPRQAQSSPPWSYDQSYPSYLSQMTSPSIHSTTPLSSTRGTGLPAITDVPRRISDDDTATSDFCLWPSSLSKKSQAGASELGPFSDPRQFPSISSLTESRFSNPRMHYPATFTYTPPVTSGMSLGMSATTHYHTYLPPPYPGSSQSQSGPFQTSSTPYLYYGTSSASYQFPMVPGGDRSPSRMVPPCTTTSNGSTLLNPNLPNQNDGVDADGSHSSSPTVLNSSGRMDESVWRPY

[2] = molecular target: runt-related transcription factor 2 (RUNX2) (mouse (endogenous in MOVAS)) (UniProt Q08775); assay: as above

- binding [1]: binds
Molecule: runt-related transcription factor 2 (RUNX2) (from UniProt Q08775 1-607)

- binding [2]: binds
B1: four and a half LIM domains 2 (FHL2) (protein, UniProt O70433 1-279)
chain: T1 sequence
